Results from article PMC4012729.
Results are given in words; binding and its absence hold for the method and conditions named. In cells and extracts the contact can be indirect. Binding calls can cover weak binding; strength is not graded here.

Amino acid sequences for entries named in this document (tags omitted). A change or cut given only in a name is not applied to a line headed by its entry.
UniProt P58397: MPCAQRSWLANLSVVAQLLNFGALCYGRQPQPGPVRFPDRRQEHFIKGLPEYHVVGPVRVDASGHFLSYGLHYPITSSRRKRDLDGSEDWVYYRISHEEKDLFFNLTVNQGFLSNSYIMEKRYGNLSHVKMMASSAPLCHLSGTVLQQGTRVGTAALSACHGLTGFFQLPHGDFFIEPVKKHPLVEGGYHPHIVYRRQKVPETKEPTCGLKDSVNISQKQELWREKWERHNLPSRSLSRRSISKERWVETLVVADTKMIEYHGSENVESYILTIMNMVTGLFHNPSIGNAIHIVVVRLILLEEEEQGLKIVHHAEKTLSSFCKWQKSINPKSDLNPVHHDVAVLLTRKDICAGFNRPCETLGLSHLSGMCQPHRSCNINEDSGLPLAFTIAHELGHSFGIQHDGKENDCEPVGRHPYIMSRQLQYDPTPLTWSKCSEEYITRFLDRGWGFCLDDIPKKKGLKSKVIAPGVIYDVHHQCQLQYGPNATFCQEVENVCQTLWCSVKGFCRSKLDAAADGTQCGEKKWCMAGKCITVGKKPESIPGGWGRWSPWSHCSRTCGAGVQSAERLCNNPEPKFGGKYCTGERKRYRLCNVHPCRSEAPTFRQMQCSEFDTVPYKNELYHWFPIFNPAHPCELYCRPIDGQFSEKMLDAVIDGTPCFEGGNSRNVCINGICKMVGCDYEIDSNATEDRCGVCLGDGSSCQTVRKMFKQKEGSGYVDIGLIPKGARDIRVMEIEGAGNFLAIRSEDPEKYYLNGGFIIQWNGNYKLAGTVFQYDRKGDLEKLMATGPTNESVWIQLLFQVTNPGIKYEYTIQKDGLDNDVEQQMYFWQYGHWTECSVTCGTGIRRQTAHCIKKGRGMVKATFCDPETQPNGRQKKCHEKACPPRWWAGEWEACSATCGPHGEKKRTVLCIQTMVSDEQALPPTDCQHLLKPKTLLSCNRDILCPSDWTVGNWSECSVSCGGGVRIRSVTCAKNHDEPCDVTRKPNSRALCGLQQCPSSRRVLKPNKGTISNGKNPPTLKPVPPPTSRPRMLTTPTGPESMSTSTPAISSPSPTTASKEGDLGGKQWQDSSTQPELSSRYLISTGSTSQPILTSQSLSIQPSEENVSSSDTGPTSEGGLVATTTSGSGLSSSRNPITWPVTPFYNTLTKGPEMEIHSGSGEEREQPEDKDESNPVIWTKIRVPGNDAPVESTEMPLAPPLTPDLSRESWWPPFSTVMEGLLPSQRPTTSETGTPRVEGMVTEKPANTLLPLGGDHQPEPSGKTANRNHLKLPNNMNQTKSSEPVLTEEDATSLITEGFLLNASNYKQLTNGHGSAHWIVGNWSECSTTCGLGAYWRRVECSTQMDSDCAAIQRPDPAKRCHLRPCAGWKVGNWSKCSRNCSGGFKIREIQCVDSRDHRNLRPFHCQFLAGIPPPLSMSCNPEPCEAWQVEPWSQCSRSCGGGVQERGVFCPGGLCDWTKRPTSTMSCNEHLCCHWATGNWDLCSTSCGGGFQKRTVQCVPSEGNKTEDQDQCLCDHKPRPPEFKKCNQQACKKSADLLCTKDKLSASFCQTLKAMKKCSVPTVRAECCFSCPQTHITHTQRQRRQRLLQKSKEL

Assays:
[1] = target: T1, recombinant fibulin-2 (added to 293-EBNA cell extracts) (human) (UniProt P98095); assay: co-IP; 293-EBNA cell extracts containing ADAMTS-12-FLAG incubated with fibulin-2; immunoprecipitated with anti-fibulin-2 antibody (H-250, Protein G kit); blot for ADAMTS-12; only the target purified
T1 sequence: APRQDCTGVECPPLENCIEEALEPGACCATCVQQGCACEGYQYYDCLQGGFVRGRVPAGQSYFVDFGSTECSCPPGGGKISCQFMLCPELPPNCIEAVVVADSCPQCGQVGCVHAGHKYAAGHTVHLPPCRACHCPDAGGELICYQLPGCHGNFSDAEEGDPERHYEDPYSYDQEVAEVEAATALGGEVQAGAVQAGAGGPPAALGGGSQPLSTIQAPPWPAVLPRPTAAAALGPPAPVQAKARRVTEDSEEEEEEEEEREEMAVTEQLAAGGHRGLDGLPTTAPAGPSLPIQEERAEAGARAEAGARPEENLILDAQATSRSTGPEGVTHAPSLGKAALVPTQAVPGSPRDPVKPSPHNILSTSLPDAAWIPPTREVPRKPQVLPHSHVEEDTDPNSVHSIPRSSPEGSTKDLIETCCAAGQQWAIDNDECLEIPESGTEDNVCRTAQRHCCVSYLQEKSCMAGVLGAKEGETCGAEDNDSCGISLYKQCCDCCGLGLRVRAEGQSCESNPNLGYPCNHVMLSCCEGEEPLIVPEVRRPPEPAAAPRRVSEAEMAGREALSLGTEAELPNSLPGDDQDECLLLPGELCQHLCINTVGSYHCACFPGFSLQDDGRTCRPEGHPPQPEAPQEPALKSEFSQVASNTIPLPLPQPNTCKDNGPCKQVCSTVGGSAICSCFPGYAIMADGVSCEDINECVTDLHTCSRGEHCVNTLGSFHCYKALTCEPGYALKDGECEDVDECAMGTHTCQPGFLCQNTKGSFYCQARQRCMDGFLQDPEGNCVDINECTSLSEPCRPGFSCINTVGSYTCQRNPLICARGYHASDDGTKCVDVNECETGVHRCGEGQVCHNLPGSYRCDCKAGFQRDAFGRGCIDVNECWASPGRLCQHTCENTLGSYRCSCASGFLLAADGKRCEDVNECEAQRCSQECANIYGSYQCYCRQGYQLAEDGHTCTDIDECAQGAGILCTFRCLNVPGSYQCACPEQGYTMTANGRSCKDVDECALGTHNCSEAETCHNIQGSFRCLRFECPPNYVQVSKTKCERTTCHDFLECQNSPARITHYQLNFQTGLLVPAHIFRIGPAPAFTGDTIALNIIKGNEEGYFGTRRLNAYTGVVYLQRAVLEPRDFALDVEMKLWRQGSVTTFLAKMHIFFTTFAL

[2] = target: ADAMTS-12 tagged with a FLAG epitope (293-EBNA cells) (human) (UniProt P58397); assay: co-IP; 293-EBNA cell extracts containing ADAMTS-12-FLAG incubated with the indicated amounts of fibulin-2; immunoprecipitated with anti-FLAG M2 affinity gel; blot with anti-fibulin-2 antibody; only the binder purified

Molecule: ADAMTS-12 tagged with a FLAG epitope (293-EBNA cells) (from UniProt P58397) (enzyme)
- binding [1]: binds

B1: recombinant fibulin-2 (added to 293-EBNA cell extracts) (protein, UniProt P98095 28-1184)
chain: T1 sequence
- binding [2]: binds
